According to the supplement of paper PMC10689618:
The other results are listed elsewhere or left out. Many values rest on one well or one pass, so single values are uncertain.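 Primary human fetal astrocytes engulfed labelled rat cortical synaptosomes, measured as a red/green ratio corrected for calcein live-cell signal and scaled to the plate median. Toxicity meant calcein falling over 30%; decreased phagocytosis meant below 70% of median above 5 µM.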

Legend:
[1] = test system: Human fetal astrocytes; test: loss of total cells relative to no-compound high-control median (toxicity); higher = more toxic (fewer cells); conditions: 24 h
[2] = test system: Human fetal astrocytes; test: synaptosome phagocytosis (pHrodo/calcein intensity ratio) relative to plate median of data wells; higher = more phagocytosis; conditions: 24 h

SMILES	loss of total cells ([1]; 1.39 µM) [%]	loss of total cells ([1]; 2.78 µM) [%]	loss of total cells ([1]; 5.56 µM) [%]	loss of total cells ([1]; 11.11 µM) [%]	loss of total cells ([1]; 22.22 µM) [%]	synaptosome phagocytosis ([2]; 1.39 µM) [%]	synaptosome phagocytosis ([2]; 2.78 µM) [%]	synaptosome phagocytosis ([2]; 5.56 µM) [%]	synaptosome phagocytosis ([2]; 11.11 µM) [%]	synaptosome phagocytosis ([2]; 22.22 µM) [%]
CC(C)(C)NCC(O)COc1cccc2c1CC(O)C(O)C2 (stereo not given)	23.4	-46.8	15.5	35.1	13.4	162	111	111	125	136
CC(=O)NO	-6.6	-6.4	5.1	-7	9.1	64.8	83.1	97.9	79.5	117
C[C@@H]1CC[C@@]2(OC1)O[C@H]1C[C@H]3[C@@H]4CC=C5C[C@@H](O)CC[C@]5(C)[C@H]4CC[C@]3(C)[C@H]1[C@@H]2C	15.5	15.5	11.6	-2.9	0	100	105	104	149	91.6
CCOC(=O)[C@H](CCc1ccccc1)N[C@@H](C)C(=O)N1[C@H](C(=O)O)C[C@@H]2CCC[C@@H]21	-25	-21.4	4.3	-1	-1.6	88.4	94.6	96.1	88.8	112
O=C(O)C1CC([C@@H]2CCCCN2)CN2CCCCC12 (stereo not given in full)	-5.7	-14.1	17.6	10.1	9.6	111	89	113	128	107
COCC1=C(C(=O)OC(C)OC(=O)OC(C)C)N2C(=O)[C@@H](NC(=O)/C(=N\OC)c3csc(N)n3)[C@H]2SC1 (stereo not given in full)	-31.5	-23.8	0.6	-1.6	6.5	87.4	85.6	93.1	83.7	109
C[C@H]1C[C@@H]2[C@H]([C@@H](O)C[C@@]3(C)[C@H]2CC[C@]3(O)C(=O)CO)[C@@]2(C)C=CC(=O)C=C12	-14.9	-10.1	10.5	-19.5	11.3	57.3	92.7	107	83.4	106
COC(=O)[C@@]1(C)CCC[C@]2(C)c3ccc(O)c(C(C)C)c3CCC12 (stereo not given in full)	14.1	18.4	15.2	21.3	29.5	125	69	100	61.6	69.3
C=C[C@@H](C1=CC(=O)C(OC)=C(OC)C1=O)c1ccccc1	4.7	-11.3	42	60.6	53	95.8	90.7	110	55.7	8.9
Cc1cc(=O)oc2cc(O)cc(O)c12	-20.5	-11.2	2.2	-3.4	-8.9	99.5	82.3	91.3	137	92.1
COc1ccc(/C=C/C(=O)Nc2ccccc2C(=O)O)cc1OC [Tranilast]	-32.3	27	1.9	42.3	11.5	91.8	140	87.3	135	68.2
COc1cc2ccc(=O)oc2c(O)c1O	-33.6	3.2	-19	14.2	18.5	107	100	93.9	92.8	92.7
OCC(S)CS (stereo not given)	31.5	7.3	-18.3	49.7	12.2	132	95	94.3	252	217
O=c1c2ccccc2oc2ccccc12	-7.6	1.3	-4.6	35.5	5.6	72.9	87.7	104	115	83.7
Nc1nc(F)nc2c1ncn2[C@@H]1O[C@H](COP(=O)(O)O)[C@@H](O)[C@@H]1O	-41.1	23.8	2.5	30.5	4.7	101	139	108	103	108
CC(C)=CCC[C@@H](C)[C@@H]1CC[C@]2(C)C3=C(CC[C@@]12C)[C@@]1(C)CC[C@H](O)C(C)(C)[C@@H]1CC3	1.8	7.3	35.9	43.2	18.9	99.4	120	143	136	113
C[C@]12CC[C@@H]3c4ccc(O)cc4CC[C@H]3[C@@H]1CC[C@@H]2O	-0.9	-29.5	-11.1	6.6	-8.8	72.9	74.7	83.7	82.9	66
CC(=O)O[C@]1(C(C)=O)CC[C@H]2[C@@H]3C=C(Cl)C4=CC(=O)[C@@H]5C[C@@H]5[C@]4(C)[C@H]3CC[C@@]21C	-22.3	-19.3	-17.4	-11.2	28.3	100	105	140	91.3	104
CCCC(=O)O[C@]1(C(=O)CO)CC[C@H]2[C@@H]3CCC4=CC(=O)CC[C@]4(C)[C@H]3[C@@H](O)C[C@@]21C	17.7	-16.7	12.4	-8.2	25.9	87.5	114	102	66.4	106

A draw from above in order of count of non-hydrogen atoms, falling.
SMILES	loss of total cells ([1]; 1.39 µM) [%]	loss of total cells ([1]; 2.78 µM) [%]	loss of total cells ([1]; 5.56 µM) [%]	loss of total cells ([1]; 11.11 µM) [%]	loss of total cells ([1]; 22.22 µM) [%]	synaptosome phagocytosis ([2]; 1.39 µM) [%]	synaptosome phagocytosis ([2]; 2.78 µM) [%]	synaptosome phagocytosis ([2]; 5.56 µM) [%]	synaptosome phagocytosis ([2]; 11.11 µM) [%]	synaptosome phagocytosis ([2]; 22.22 µM) [%]
COC(=O)[C@@]1(C)CCC[C@]2(C)c3ccc(O)c(C(C)C)c3CCC12 (stereo not given in full)	14.1	18.4	15.2	21.3	29.5	125	69	100	61.6	69.3
C=C[C@@H](C1=CC(=O)C(OC)=C(OC)C1=O)c1ccccc1	4.7	-11.3	42	60.6	53	95.8	90.7	110	55.7	8.9
COc1cc2ccc(=O)oc2c(O)c1O	-33.6	3.2	-19	14.2	18.5	107	100	93.9	92.8	92.7

(next part)

SMILES	loss of total cells ([1]; 1.39 µM) [%]	loss of total cells ([1]; 2.78 µM) [%]	loss of total cells ([1]; 5.56 µM) [%]	loss of total cells ([1]; 11.11 µM) [%]	loss of total cells ([1]; 22.22 µM) [%]	synaptosome phagocytosis ([2]; 1.39 µM) [%]	synaptosome phagocytosis ([2]; 2.78 µM) [%]	synaptosome phagocytosis ([2]; 5.56 µM) [%]	synaptosome phagocytosis ([2]; 11.11 µM) [%]	synaptosome phagocytosis ([2]; 22.22 µM) [%]
COc1ccc2[nH]c([S+]([O-])Cc3ncc(C)c(OC)c3C)nc2c1 (stereo not given)	-11.6	-0.9	0.3	-5.5	7.4	56.6	97.9	112	75.9	89.3
CCCCCCCCCCCCC[N+](C)(C)Cc1ccccc1	-24.2	-20.6	18	25.9	56.4	104	90.8	108	58.4	20.5
COc1ccc(C(=O)c2ccc(O)cc2)c(O)c1O	-22.8	8	-2.3	6.5	12.2	76.2	94	82.3	72.2	124
NC[C@H]1CC[C@H](C(=O)O)CC1	14.9	2.1	17.1	0	17.6	113	95.3	118	90	106
CC=CC(=O)N(CC)c1ccccc1C	-21.6	16.2	-5.1	-7.8	-1.7	93.2	110	90.3	96	88.8
OC(CCN1CCCCC1)(c1ccccc1)C1CC2C=CC1C2 (stereo not given)	-32.3	-41.3	0.6	-21.3	9	89.9	93.3	122	74.6	97.8
O=C(OC[C@H]1O[C@@H](OC(=O)c2cc(O)c(O)c(OC(=O)c3cc(O)c(O)c(O)c3)c2)[C@H](OC(=O)c2cc(O)c(O)c(OC(=O)c3cc(O)c(O)c(O)c3)c2)[C@@H](OC(=O)c2cc(O)c(O)c(OC(=O)c3cc(O)c(O)c(O)c3)c2)[C@@H]1OC(=O)c1cc(O)c(O)c(OC(=O)c2cc(O)c(O)c(O)c2)c1)c1cc(O)c(O)c(OC(=O)c2cc(O)c(O)c(O)c2)c1	-4.1	22.3	30.9	59.4	68	100	146	110	37.7	42.1
c1ccc(CN(CC2=NCCN2)c2ccccc2)cc1	5	-10.7	6.3	2.3	22.7	103	106	101	117	103
CC(C)(S)[C@@H](N)C(=O)O	16.6	-5.2	18.3	-8.6	11.3	116	114	108	122	110
C[C@]12CCC3c4ccc(OC(=O)c5ccccc5)cc4CCC3C1CCC2=O (stereo not given in full)	6.1	6.1	3.6	2.9	-9.1	61.6	118	86.3	131	106
CC(C)CCCC(C)C1CCC2C3CCC4CCCCC4(C)C3CCC12C (stereo not given)	-13.4	-2.7	-7.6	30.3	8.5	105	84	106	91.4	109
CCOc1ccc(C(=O)c2ccc(OC)c(O)c2O)cc1	-4	8.6	35.1	54.8	7.8	92	100	120	127	95.6
CC(C)c1ccc2c(c1)CC[C@H]1[C@](C)(CN)CCC[C@]21C	-10.7	-4	-1.5	12.2	83.7	99.7	106	91.8	75.1	0
OC[C@H]1O[C@@H](O[C@H]2[C@H](O)[C@@H](O)C(O)O[C@@H]2CO)[C@H](O)[C@@H](O)[C@@H]1O (stereo not given in full)	-6.6	-14.8	-5.1	-0.7	-3.7	125	104	125	110	110
O=c1[nH]c(=O)n([C@H]2C[C@H](O)[C@@H](CO)O2)cc1F	-36.3	-19	11.8	37	8.4	114	104	125	103	130
c1coc(CNc2ncnc3[nH]cnc23)c1	24.2	17	27.5	2.9	13.6	120	110	140	86.3	141
CC1CCC(NC(=O)N(CCCl)N=O)CC1 (stereo not given)	-28.2	-21.4	0	-0.3	-1.6	81.1	117	102	101	86
N=C(N)NC(=N)N1CCOCC1	23.5	21.3	26.1	-9.6	16.7	137	124	136	83.5	149
CC1(C)CC[C@]2(C(=O)O)CC[C@]3(C)C(=CC[C@@H]4[C@@]5(C)CC[C@H](O)[C@@](C)(CO)[C@@H]5CC[C@]43C)[C@@H]2C1	-26.2	-4.7	-5.1	2.7	-2.2	101	123	133	109	94.7
